Results are given in words; binding and its absence hold for the method and conditions named. Some binding calls cover weakened binding; strength is not graded here. One block for each binder: values may come before it.
What was measured:
soluble CD23 (sCD23) [1] = molecular target: T1, soluble CD23 (sCD23) (human, UniProt P06734 150-321, limits assumed); assay: ELISA, plate coated with sCD23, OD against antibody concentration
T1 sequence (looked up): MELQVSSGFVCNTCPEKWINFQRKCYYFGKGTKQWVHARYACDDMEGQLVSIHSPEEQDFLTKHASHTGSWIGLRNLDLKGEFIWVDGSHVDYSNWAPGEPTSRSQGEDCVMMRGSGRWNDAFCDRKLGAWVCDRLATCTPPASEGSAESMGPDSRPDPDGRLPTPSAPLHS

[2] = molecular target: T2, membrane CD23 (surface CD23 on cells, e.g. RPMI 8866 cells) (human) (UniProt P06734); assay: flow cytometry on RPMI 8866 cells
T2 sequence (looked up): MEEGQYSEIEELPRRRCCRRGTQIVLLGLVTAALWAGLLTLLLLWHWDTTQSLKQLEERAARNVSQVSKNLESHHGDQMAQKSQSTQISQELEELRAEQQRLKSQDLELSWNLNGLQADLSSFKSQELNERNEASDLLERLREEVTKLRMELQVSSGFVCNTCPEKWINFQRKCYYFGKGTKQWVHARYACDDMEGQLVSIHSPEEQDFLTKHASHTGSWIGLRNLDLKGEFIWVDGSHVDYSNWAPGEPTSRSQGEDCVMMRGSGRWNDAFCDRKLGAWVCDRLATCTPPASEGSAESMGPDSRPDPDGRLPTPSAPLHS

[3] = molecular target: T2, membrane CD23 (surface CD23 on cells, e.g. RPMI 8866 cells) (human); assay: FACS on cells carrying membrane CD23
soluble CD23 (sCD23) [4] = molecular target: T1, soluble CD23 (sCD23); assay: ELISA, sCD23 coated on plate
soluble CD23 (sCD23) [5] = molecular target: T1, soluble CD23 (sCD23); assay: ELISA, sCD23 coated on plate, COS supernatant, anti-human kappa peroxidase detection

binding (soluble CD23 (sCD23) [1]): binds
binding [2]: binds
B1: humanised anti-CD23 antibody (IgG1 with mutations 248 Leu to Ala and 250 Gly to Ala, human kappa) (antibody, V domains shown)
VH: EVQLVESGGGLVKPGGSLRLSCAASGFTFSGYWMSWVRQAPGKGLEWVAEIRLKSDNYATHYAESVKGKFTISRDDSKSRLYLQMNSLKTEDTAVYYCTDFIDWGQGTLVTVSS
VL: DIVMTQSPLSLPVTPGEPASISCRSSKSLLYKDGKTYLNWYLQKPGQSPQLLIYLMSTRASGVPDRFSGSGSGTDFTLKISRVEAEDVGVYYCQQLVEYPFTFGQGTKVEIKR
notes: The light chain constant region is human kappa; also called humanised CD23 IgG1m

binding (soluble CD23 (sCD23) [1]): binds
binding [3]: binds
binding (soluble CD23 (sCD23) [4]): binds
binding (soluble CD23 (sCD23) [5]): binds
B2: chimaeric anti-CD23 antibody (murine C11 variable regions, human gamma 1 and human kappa constant regions) (antibody, human IgG1, V domains shown)
VH: EVKLEESGGGLVQPGGSMKLSCVASGFTFSGYWMSWVRQSPEKGLEWVAEIRLKSDNYATHYAESVKGKFTISRDDSKSRLYLQMNSLRAEDSGVYYCTDFIDWGQGTL
VL: DIVITQDELSNPVTSGESVSISCRSSKSLLYKDGKTYLNWFLQRPGQSPQLLMYLMSTRASGVSDRFSGSGSGTDFTLEISRVKAEDVGVYYCQQLVEYPFTFGSGTKLEIKR
notes: The VH is fused to the human IgG1 (gamma 1) constant region of Reichmann et al 1988 and the VL to the human kappa constant region of Reichmann et al 1988; It was transiently expressed in COS cells and tested as supernatant; The variable regions were amplified with signal-peptide primers, so the entries may include a leader, and no cleavage site is stated; also called chimeric CD23; chimaeric CD23 …

— patent US7008623 (GlaxoSmithKline, dated 2006)
